Some results were stated once for a whole list of compounds, not compound by compound. For some of these results: For at least one compound, name, drawing or mass did not settle the structure.
Assays:
Type in all cases: in vivo
[1] = system: Diabrotica balteata (Corn Root Worm); assay: Activity against Diabrotica balteata (corn root worm), maize sprouts sprayed; settings: application rate 200 ppm; L2 larvae; 4 days after infestation
Method: Example B1: Activity Against Diabrotica balteata (Corn Root Worm)
Maize sprouts placed onto an agar layer in 24-well microtiter plates were treated with aqueous test solutions prepared from 10,000 ppm DMSO stock solutions by spraying. After drying, the plates were infested with L2 larvae (6 to 10 per well). The samples were assessed for mortality and growth inhibition in comparison to untreated samples 4 days after infestation.

[2] = system: Plutella xylostella (Diamond Back Moth); assay: Activity against Plutella xylostella (diamond back moth), artificial diet; settings: application rate 200 ppm; eggs; 8 days after infestation
Method: Example B3: Activity Against Plutella xylostella (Diamond Back Moth)
24-well microtiter plates with artificial diet were treated with aqueous test solutions prepared from 10,000 ppm DMSO stock solutions by pipetting. After drying, Plutella eggs were pipetted through a plastic stencil onto a gel blotting paper and the plate was closed with it. The samples were assessed for mortality and growth inhibition in comparison to untreated samples 8 days after infestation.

[3] = system: Bemisia tabaci (Cotton White Fly); assay: Activity against Bemisia tabaci (cotton white fly), cotton leaf discs; settings: application rate 200 ppm; adult white flies; 6 days after incubation
Method: Example B6: Activity Against Bemisia tabaci (Cotton White Fly)
Cotton leaf discs were placed on agar in 24-well microtiter plates and sprayed with aqueous test solutions prepared from 10,000 ppm DMSO stock solutions. After drying the leaf discs were infested with adult white flies. The samples were checked for mortality 6 days after incubation.

Compound | effect in at least one of the two categories (mortality or growth inhibition) [1] | effect in at least one of the two categories (mortality or growth inhibition) [2] | mortality [3]
3-(3-ethylsulfonyl-2- pyridyl)-8-(2,2,3,3,3- pentafluoropropoxy)imi- dazo[1,5-a]pyridine [Compound P27] | at least 80% | at least 80% | at least 80%
CCSc1cccnc1-c1ncc2c(OCC(F)(F)C(F)(F)F)cccn12 [Compound P26, 3-(3-ethylsulfanyl-2-pyridyl)-8-(2,2,3,3,3-pentafluoropropoxy)imi-dazo[1,5-a]pyridine] |  | at least 80% | 

Reference: US20220061324A1, “PESTICIDALLY ACTIVE HETEROCYCLIC DERIVATIVES WITH SULFUR CONTAINING SUBSTITUENTS” (SYNGENTA CROP PROTECTION AG, priority 2018, published 2022)
